Test results reported in patent publication US9896421B2, “Compound having skin-whitening, anti-oxidizing and PPAR activities and medical use thereof” (Pusan National University Industry-University Cooperation …, priority 2011, dated 2018).
At least one structure is not confirmed: it was looked up by name or label, or the drawing left a doubt.

How the values were obtained:
[1] = tested on: ROS generated by vascular endothelial cells (YPEN-1); assay: In vitro ROS scavenging activity assay (DCFDA) in YPEN-1 vascular endothelial cells; format: cell-based, rat; conditions: YPEN-1 cells pre-treated with 50 μM SIN-1 for 1 hour; DCFDA fluorescence; compared with trolox (positive control); FIGS. 1 to 3
Procedure: YPEN-1 cells (rat prostatic endothelial cell line) was obtained from American type culture collection (ATCC, Manassas, Va., USA), and the cells were cultured by using a dulbecco's modified eagle medium (DMEM, Nissui, Tokyo, Japan) containing 2 mM L-glutamine, […], 2.5 mg/L amphotericin B, and 5% inactivated fetal bovine serum (FBS). Also, the cells were maintained at a temperature of 37° C. in a humid atmosphere-like condition containing 5% CO2 and 95% air. […] The cells were sub-cultured in 100 mm plastic flask (Corning Co., New York, USA) every two days to maintain the cell line.
Since the oil-soluble DCFDA was deacetylated into non-fluorescent DCFH due to esterase or oxidative hydrolysis and the DCFH was oxidized due to activity oxgyen to produce highly-fluorescent 2′,7′-dichlorofluorescein (DCF), the present measurement was performed at an excitation wavelength of 485 nm and an emission wavelength of 530 nm by using a fluorophotometer (GENios, TECAN). Vascular endothelial cells that were pre-treated with 50 μM 3-morpholinosydnonimine hydrochloride (SIN-1) for 1 hour were used as a reactive oxygen generation source.

[2] = tested on: Mushroom-derived tyrosinase; assay: Tyrosinase inhibitory effect; format: biochemical; conditions: 1 mM L-tyrosin, pH 6.5, 25° C., 30 minutes, OD492; compared with kojic acid (positive control); FIGS. 4 to 6
Procedure: Mushroom-derived tyrosinase was sued as an enzyme source in the present experiment. Tyrosinase activities were assayed according to a slightly-modified conventionally known method (Life Sci., 1999, 65, 241-246). In detail, 20 μl of a mushroom-derived tyrosinase (1000 units) aqueous solution was added to 96-well microplate (Nunc, Denmark) to prepare 200 μl of the total volume of assay mixture containing 1 mM L-tyrosin solution and 50 mM phosphate buffer solution (pH 6.5). The assay mixture was cultured at a temperature of 25° C. for 30 minutes. After the culturing, an amount of the produced DOPA chrome in the reaction mixture was measured by using a microplate reader (Hewlett Packard) at 492 nm (OD492).

O=C1NC(=S)S/C1=C\c1ccc(O)c(O)c1 [Compound 62, (Z)-5-(3,4-dihydroxybenzylidene)-2-thioxothiazolidin-4-one]
scavenging effects on ROS generated by vascular endothelial cells [1]: as high scavenging effects on ROS generated by vascular endothelial cells as trolox

O=C1NC(=S)S/C1=C\c1ccc(O)cc1O [Compound 63, (Z)-5-(2,4-dihydroxybenzylidene)-2-thioxothiazolidin-4-one]
tyrosinase inhibitory activities [2]: better tyrosinase inhibitory activities than a kojic acid
